According to paper PMC4041471, “Cas6 specificity and CRISPR RNA loading in a complex CRISPR-Cas system” (Nucleic Acids Research, 2014):
These are yes or no findings as the source states them, for the method shown. Some binding calls cover weakened binding; strength is not graded here. Tags and fused reporters may be left off the sequences shown.

Sequences of proteins named here, by UniProt entry; tags and fusion partners are left off.
UniProt P0A6F5: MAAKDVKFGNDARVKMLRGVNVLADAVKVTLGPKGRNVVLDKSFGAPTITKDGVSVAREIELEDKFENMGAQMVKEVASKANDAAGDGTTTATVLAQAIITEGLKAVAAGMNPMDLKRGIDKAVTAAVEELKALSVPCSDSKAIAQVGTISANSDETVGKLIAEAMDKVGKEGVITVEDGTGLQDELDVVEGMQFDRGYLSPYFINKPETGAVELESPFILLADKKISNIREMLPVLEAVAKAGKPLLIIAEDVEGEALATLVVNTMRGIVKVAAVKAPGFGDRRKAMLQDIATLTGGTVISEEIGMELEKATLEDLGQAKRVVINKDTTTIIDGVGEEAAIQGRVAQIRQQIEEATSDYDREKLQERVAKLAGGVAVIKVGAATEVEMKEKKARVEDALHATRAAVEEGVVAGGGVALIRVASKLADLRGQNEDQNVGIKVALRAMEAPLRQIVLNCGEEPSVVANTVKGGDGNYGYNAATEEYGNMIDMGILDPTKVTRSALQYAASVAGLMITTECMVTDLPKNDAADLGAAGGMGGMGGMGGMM

Target: T1, MBP-Cas6-3 (MBP-Sso1422 fusion protein) (S. solfataricus) (UniProt Q97YB0)
T1 sequence: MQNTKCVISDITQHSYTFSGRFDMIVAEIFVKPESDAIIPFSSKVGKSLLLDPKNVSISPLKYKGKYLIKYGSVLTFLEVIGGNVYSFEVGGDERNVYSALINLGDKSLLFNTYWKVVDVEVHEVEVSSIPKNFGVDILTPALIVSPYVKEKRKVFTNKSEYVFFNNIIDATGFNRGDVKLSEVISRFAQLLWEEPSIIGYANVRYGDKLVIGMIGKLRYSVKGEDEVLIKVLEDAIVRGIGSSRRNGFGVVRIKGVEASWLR
Experiment: co-purification (immobilised metal affinity chromatography, then SEC); cleared E. coli C43 lysate on HisTrap FF (50 mM Tris-HCl pH 7.5, 500 mM NaCl, 30-500 mM imidazole, 10% glycerol), then Superdex 200 10/300 in 20 mM Tris-HCl pH 7.5, 300 mM NaCl, 10% glycerol

binding: binds
Substance: E. coli chaperone GroEL (from UniProt P0A6F5 1-548)
